Experimental data published in the supplement of paper PMC10849652.
The other results are listed elsewhere or left out.

Chains of the proteins cited; added tags and fusions are not shown. Lines headed by an entry give the natural chain unless they say otherwise; changes in a name come on top.
UniProt P35580, whole entry, looked up: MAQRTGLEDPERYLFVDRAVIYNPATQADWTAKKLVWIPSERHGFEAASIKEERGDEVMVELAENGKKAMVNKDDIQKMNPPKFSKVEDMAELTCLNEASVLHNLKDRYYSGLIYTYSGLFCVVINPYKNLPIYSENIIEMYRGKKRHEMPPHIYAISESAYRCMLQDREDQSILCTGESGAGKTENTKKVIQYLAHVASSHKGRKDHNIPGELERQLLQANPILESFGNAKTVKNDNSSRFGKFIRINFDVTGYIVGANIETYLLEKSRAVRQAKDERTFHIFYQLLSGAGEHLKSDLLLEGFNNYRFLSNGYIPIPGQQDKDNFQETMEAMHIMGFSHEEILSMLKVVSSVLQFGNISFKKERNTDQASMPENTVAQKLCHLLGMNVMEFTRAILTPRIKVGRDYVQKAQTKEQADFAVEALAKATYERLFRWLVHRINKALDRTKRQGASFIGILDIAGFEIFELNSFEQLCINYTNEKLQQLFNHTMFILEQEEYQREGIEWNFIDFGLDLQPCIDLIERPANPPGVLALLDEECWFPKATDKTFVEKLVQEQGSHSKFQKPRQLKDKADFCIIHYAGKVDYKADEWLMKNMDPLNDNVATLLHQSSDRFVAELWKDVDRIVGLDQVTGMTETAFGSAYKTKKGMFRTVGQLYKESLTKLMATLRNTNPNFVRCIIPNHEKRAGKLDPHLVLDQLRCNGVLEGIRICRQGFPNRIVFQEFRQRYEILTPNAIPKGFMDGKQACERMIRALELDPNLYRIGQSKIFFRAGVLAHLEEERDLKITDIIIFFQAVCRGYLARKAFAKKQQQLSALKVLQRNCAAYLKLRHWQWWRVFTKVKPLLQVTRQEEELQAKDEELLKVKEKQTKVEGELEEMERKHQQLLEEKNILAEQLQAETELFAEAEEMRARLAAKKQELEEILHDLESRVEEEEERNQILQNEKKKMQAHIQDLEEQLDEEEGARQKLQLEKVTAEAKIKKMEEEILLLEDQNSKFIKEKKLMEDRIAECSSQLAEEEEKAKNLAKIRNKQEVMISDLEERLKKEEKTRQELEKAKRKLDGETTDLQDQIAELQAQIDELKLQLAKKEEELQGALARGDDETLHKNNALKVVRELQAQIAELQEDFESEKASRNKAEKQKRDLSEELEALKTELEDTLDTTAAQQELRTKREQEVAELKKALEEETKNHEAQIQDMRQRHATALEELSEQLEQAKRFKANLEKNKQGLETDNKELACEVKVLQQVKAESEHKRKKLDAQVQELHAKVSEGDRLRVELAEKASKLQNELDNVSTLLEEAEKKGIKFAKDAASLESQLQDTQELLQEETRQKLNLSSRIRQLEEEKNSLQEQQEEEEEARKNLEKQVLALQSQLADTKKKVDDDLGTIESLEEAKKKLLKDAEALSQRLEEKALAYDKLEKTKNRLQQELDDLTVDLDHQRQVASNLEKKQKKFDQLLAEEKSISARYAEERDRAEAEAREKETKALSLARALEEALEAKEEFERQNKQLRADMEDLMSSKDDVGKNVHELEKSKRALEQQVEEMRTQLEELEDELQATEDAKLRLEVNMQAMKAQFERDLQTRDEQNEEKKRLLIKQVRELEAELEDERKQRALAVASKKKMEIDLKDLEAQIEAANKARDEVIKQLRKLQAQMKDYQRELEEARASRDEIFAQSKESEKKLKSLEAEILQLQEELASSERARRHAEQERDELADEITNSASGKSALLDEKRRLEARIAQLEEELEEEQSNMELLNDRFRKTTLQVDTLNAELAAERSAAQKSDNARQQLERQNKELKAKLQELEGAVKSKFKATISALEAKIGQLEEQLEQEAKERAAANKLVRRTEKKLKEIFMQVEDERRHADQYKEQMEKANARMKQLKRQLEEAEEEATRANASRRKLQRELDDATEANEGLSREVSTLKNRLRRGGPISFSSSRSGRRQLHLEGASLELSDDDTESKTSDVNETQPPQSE
UniProt Q9NXD2: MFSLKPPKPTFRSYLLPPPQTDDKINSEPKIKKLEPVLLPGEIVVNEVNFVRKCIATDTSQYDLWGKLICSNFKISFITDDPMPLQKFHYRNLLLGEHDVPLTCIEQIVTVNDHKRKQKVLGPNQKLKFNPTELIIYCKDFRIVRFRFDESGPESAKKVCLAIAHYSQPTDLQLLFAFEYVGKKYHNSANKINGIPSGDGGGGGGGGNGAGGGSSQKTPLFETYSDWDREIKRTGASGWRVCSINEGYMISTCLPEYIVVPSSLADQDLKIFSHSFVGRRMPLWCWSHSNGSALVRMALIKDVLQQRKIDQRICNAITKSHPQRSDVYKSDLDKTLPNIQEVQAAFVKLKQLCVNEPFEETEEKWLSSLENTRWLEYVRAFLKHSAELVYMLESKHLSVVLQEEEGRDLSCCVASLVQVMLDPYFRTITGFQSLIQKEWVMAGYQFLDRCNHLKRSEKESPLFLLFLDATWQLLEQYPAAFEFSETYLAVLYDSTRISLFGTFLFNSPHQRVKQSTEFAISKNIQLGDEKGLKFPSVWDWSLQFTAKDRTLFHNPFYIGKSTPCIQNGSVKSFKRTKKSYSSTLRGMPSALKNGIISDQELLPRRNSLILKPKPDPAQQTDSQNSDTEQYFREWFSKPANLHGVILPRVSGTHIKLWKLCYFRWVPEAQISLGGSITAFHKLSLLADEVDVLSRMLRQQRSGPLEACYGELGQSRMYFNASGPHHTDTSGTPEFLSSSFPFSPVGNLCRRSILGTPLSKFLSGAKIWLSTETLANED
UniProt P03905, whole entry, looked up: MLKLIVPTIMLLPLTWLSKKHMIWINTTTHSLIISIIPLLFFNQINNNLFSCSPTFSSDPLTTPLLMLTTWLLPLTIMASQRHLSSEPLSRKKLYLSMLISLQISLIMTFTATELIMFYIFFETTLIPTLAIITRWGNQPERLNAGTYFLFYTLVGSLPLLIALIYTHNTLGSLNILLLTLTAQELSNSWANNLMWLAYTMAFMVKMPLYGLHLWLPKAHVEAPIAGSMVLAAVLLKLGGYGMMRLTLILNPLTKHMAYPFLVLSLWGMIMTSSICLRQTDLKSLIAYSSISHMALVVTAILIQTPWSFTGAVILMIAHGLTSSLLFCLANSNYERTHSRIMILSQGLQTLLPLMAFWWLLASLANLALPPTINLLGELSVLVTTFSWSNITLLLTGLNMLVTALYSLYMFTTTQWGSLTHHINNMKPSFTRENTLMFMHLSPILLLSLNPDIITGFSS
UniProt Q8NCE2: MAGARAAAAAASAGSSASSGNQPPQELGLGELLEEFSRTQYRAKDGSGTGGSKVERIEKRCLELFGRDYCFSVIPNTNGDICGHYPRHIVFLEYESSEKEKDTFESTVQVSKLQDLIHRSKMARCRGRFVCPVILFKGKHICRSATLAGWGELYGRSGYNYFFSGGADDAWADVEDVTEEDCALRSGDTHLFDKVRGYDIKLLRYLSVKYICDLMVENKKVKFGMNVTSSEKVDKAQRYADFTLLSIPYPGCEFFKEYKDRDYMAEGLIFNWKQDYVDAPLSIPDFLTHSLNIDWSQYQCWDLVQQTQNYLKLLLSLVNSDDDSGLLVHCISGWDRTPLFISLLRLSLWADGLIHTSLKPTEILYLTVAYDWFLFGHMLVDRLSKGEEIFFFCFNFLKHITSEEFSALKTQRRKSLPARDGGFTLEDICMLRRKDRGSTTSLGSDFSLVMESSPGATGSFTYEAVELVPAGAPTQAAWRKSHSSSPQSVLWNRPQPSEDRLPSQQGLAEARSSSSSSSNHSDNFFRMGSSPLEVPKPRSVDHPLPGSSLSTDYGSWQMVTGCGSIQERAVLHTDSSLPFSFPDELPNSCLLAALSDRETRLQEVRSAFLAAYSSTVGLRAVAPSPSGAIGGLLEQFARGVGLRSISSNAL
UniProt P35749, whole entry, looked up: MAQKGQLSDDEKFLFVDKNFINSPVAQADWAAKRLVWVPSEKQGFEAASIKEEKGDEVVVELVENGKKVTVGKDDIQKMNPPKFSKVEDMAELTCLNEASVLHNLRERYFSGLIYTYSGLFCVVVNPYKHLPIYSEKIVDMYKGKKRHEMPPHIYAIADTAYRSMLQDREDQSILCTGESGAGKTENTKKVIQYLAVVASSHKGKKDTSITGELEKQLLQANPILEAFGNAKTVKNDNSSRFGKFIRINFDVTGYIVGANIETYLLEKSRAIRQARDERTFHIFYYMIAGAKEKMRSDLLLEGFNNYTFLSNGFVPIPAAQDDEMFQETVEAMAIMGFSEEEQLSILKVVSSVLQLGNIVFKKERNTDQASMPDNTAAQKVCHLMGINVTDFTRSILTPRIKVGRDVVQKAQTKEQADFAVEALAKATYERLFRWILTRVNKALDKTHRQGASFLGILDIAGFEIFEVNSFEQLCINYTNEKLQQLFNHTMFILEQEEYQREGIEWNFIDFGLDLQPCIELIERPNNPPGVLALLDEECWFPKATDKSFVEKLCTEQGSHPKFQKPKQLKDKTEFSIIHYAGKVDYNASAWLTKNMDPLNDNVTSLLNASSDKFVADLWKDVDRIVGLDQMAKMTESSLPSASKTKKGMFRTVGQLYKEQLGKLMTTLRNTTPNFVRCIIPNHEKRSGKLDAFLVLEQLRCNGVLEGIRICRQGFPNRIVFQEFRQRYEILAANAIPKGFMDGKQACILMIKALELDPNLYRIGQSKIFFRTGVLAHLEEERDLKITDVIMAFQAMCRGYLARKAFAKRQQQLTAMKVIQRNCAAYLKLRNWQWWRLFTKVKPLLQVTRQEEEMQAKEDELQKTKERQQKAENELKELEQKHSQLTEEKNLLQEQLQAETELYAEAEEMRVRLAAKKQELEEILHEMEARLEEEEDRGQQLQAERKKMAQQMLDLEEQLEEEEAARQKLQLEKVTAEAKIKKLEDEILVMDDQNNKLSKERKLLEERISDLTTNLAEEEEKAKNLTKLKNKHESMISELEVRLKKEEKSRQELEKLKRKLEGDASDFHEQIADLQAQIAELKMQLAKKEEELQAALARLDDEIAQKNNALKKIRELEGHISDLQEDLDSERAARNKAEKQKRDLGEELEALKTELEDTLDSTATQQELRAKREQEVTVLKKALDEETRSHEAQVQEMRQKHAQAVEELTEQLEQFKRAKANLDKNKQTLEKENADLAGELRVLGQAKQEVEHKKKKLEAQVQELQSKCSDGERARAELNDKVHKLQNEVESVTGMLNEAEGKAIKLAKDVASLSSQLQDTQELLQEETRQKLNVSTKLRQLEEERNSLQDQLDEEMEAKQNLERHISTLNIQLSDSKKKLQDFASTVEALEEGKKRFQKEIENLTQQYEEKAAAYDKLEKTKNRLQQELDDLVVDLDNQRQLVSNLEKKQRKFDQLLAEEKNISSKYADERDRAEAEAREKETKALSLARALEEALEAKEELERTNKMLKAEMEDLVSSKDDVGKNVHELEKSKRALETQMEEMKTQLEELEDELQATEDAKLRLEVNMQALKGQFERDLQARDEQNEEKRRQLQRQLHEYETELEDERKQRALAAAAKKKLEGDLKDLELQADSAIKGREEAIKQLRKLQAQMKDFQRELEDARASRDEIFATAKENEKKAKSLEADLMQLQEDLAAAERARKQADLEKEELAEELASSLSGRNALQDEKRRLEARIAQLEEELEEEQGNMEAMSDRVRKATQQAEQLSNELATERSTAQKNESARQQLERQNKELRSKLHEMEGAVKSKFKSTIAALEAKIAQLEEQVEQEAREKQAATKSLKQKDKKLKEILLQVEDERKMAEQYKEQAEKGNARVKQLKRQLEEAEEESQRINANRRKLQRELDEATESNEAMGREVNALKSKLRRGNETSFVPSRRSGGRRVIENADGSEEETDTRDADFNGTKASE
UniProt P03928: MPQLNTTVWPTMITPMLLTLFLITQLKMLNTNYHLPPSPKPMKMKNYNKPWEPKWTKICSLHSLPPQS
UniProt P00846: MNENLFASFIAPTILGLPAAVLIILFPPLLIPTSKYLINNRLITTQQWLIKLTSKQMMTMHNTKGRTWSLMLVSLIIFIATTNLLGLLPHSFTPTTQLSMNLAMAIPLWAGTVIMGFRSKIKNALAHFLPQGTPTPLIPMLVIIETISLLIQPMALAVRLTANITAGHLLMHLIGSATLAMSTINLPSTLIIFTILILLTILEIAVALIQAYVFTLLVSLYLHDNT
UniProt Q99836, whole entry, looked up: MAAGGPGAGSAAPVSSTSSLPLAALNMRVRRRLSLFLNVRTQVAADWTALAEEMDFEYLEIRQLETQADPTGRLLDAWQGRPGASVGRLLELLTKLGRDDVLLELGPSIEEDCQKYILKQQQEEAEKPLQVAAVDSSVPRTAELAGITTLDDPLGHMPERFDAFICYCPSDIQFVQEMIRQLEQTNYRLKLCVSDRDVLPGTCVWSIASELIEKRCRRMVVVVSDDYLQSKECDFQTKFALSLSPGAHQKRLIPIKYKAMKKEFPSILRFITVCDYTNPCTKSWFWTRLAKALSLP

Key:
Experiment in all cases: log2 fold change, soluble protein after heating vs DMSO (PISA); higher = thermal stabilisation; K562 cells, 10 uM, 30 min; active = over 0.2 and 3.5 SD of the protein, either way, in both replicates (recomputed)
[1] = compound: CS(=O)(=O)c1ccc(-c2cnc(N)c(C(=O)Nc3ccccc3)n2)cc1
Method in brief: (§1)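 K562 cells (2×10^6 cells/mL) were treated with 10 μM compound for 30 min, and aliquots were heated for 3 min over 48°C-58°C. Pooled aliquots were extracted in PBS with 0.5% NP-40 at 4°C, and the supernatant after 21,000xg for 90 min was measured by TMTpro 16plex LC-MS/MS with channel sums equalised. Reported thermal stability, relative to control samples and from duplicates, is a log2 fold change.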

crizotinib = compound: C[C@@H](Oc1cc(-c2cnn(C3CCNCC3)c2)cnc1N)c1c(Cl)ccc(F)c1Cl [crizotinib]
Method in brief: as §1

[2] = compound: C[C@@H]1COCCN1C2=NC(=NC(=C2)C3(CC3)S(=O)(=O)C)C4=C5C=CNC5=CC=C4
Method in brief: as §1

[3] = compound: C[C@H](C1=CC=C(C=C1)C(=O)NC2=C3C=CNC3=NC=C2)N
Method in brief: as §1

gandotinib = compound: Cc1cc(Nc2cc(CN3CCOCC3)c3nc(C)c(Cc4ccc(Cl)cc4F)n3n2)n[nH]1 [gandotinib]
Method in brief: as §1

[4] = compound: Cc1cc(SCc2sc(-c3ccc(C(F)(F)F)cc3)nc2C)ccc1OCC(=O)O
Method in brief: as §1

doramapimod = compound: Cc1ccc(-n2nc(C(C)(C)C)cc2NC(=O)Nc2ccc(OCCN3CCOCC3)c3ccccc23)cc1 [doramapimod]
Method in brief: as §1

ispinesib = compound: Cc1ccc(C(=O)N(CCCN)[C@@H](c2nc3cc(Cl)ccc3c(=O)n2Cc2ccccc2)C(C)C)cc1 [ispinesib]
Method in brief: as §1

bafetinib = compound: Cc1ccc(NC(=O)c2ccc(CN3CC[C@H](N(C)C)C3)c(C(F)(F)F)c2)cc1Nc1nccc(-c2cncnc2)n1 [bafetinib]
Method in brief: as §1

[5] = compound: Cc1cccc(CC(=O)N2CCc3c2ccc(-c2cn(C)c4ncnc(N)c24)c3F)n1
Method in brief: as §1

nilotinib = compound: Cc1cn(-c2cc(NC(=O)c3ccc(C)c(Nc4nccc(-c5cccnc5)n4)c3)cc(C(F)(F)F)c2)cn1 [nilotinib]
Method in brief: as §1

[6] = compound: Cc1nc(Nc2n[nH]c3c2CN(C(=O)N[C@H](CN(C)C)c2ccccc2)C3(C)C)c2sccc2n1
Method in brief: as §1

dasatinib = compound: Cc1nc(Nc2ncc(C(=O)Nc3c(C)cccc3Cl)s2)cc(N2CCN(CCO)CC2)n1 [dasatinib]
Method in brief: as §1

[7] = compound: Cc1ncc(-c2ccnc(Nc3ccc(S(C)(=O)=O)cc3)n2)n1C(C)C
Method in brief: as §1

[8] = compound: Cn1cc(-c2ccc3c(c2)CCN3C(=O)Cc2cccc(C(F)(F)F)c2)c2c(N)ncnc21
Method in brief: as §1

[9] = compound: Cn1cc(-c2ccc3nnc(C(F)(F)c4ccc5ncccc5c4)n3n2)cn1
Method in brief: as §1

tipifarnib = compound: Cn1cncc1[C@@](N)(c1ccc(Cl)cc1)c1ccc2c(c1)c(-c1cccc(Cl)c1)cc(=O)n2C [tipifarnib]
Method in brief: as §1

mubritinib = compound: FC(F)(F)c1ccc(/C=C/c2nc(COc3ccc(CCCCn4ccnn4)cc3)co2)cc1 [mubritinib]
Method in brief: as §1

duvelisib = compound: C[C@H](Nc1ncnc2nc[nH]c12)c1cc2cccc(Cl)c2c(=O)n1-c1ccccc1 [duvelisib]
Method in brief: as §1

tozasertib = compound: Cc1cc(Nc2cc(N3CCN(C)CC3)nc(Sc3ccc(NC(=O)C4CC4)cc3)n2)n[nH]1 [tozasertib]
Method in brief: as §1

Measured: log2 fold change

MYH10 isoform 3 (UniProt P35580)
inactive: [1] -0.013 | crizotinib -0.038 | [2] 0.056 | [3] -0.026 | gandotinib -0.004 | [4] 0.013 | doramapimod 0.009 | ispinesib 0.01 | bafetinib -0.046 | [5] 0.033 | nilotinib -0.049 | [6] -0.001 | dasatinib -0.057 | [7] 0.004 | [8] 0.056 | [9] 0.011 | tipifarnib -0.083 | mubritinib 0.059

MRPS9 (UniProt P82933)
inactive: [1] -0.001 | crizotinib 0.011 | [2] 0.036 | [3] 0.202 | gandotinib -0.054 | [4] 0.086 | doramapimod 0.031 | bafetinib 0.106 | [5] 0.067 | nilotinib -0.094 | [6] 0.008 | dasatinib -0.023 | [7] -0.024 | [8] -0.073 | [9] 0.057 | tipifarnib -0.025 | mubritinib 0.085
active: ispinesib -0.344

MRPS33 (UniProt Q9Y291)
active: ispinesib -0.485
inactive: [1] 0.041 | crizotinib 0.005 | [2] 0.005 | [3] 0.168 | gandotinib -0.034 | [4] 0.121 | doramapimod 0.034 | bafetinib 0.123 | [5] 0.125 | nilotinib -0.129 | [6] 0.064 | dasatinib 0.031 | [7] -0.04 | [8] -0.033 | [9] 0.028 | tipifarnib -0.003 | mubritinib 0.106

MRPS12 (UniProt O15235)
inactive: [1] 0.046 | crizotinib -0.075 | [2] 0.015 | [3] 0.311 | gandotinib 0.063 | [4] 0.022 | doramapimod 0.003 | bafetinib 0.269 | [5] 0.146 | nilotinib -0.161 | [6] 0.073 | dasatinib 0.062 | [7] -0.024 | [8] -0.045 | [9] 0.111 | tipifarnib -0.082 | mubritinib 0.143
active: ispinesib -0.65

MTMR10 (UniProt Q9NXD2)
inactive: [1] -0.015 | crizotinib 0.011 | [2] 0.327 | doramapimod 0.086 | bafetinib 0.122 | nilotinib -0.14 | [6] -0.031 | [7] 0.064 | tipifarnib -0.041 | mubritinib 0.025

MT-ND4 (UniProt P03905)
inactive: [1] -0.107 | crizotinib 0.008 | [2] 0.052 | [3] -0.148 | gandotinib -0.104 | [4] -0.066 | doramapimod 0 | ispinesib 0.118 | bafetinib -0.016 | [5] -0.118 | nilotinib 0.006 | [6] -0.033 | dasatinib -0.009 | [7] -0.003 | [8] -0.004 | [9] -0.045 | tipifarnib 0.173 | mubritinib 0.05

MTMR14 (UniProt Q8NCE2)
inactive: [1] 0.033 | crizotinib 0.069 | [2] -0.054 | [3] 0.014 | gandotinib 0.144 | [4] 0.079 | doramapimod -0.03 | ispinesib 0.061 | bafetinib -0.051 | [5] -0.089 | nilotinib -0.023 | [6] -0.04 | dasatinib -0.063 | [7] 0.016 | [8] -0.006 | [9] -0.084 | tipifarnib -0.035 | mubritinib 0.058

MYH11 isoform 2 (UniProt P35749)
inactive: [1] -0.026 | crizotinib -0.025 | [2] 0.01 | [3] -0.078 | gandotinib 0.014 | [4] 0.009 | doramapimod 0.057 | ispinesib -0.012 | bafetinib -0.055 | [5] -0.016 | nilotinib 0.05 | [6] 0.014 | dasatinib -0.027 | [7] -0.025 | [8] 0.039 | [9] -0.001 | tipifarnib 0.005 | mubritinib 0.007

MRPS25 (UniProt P82663)
inactive: [1] -0.018 | crizotinib -0.082 | [2] -0.103 | [3] 0.165 | gandotinib -0.109 | [4] 0.121 | doramapimod -0.083 | bafetinib 0.125 | [5] 0.158 | nilotinib -0.144 | [6] -0.043 | dasatinib -0.105 | [7] 0.044 | [8] 0.037 | [9] 0 | tipifarnib -0.077 | mubritinib 0.069
active: ispinesib -0.438

MRPS21 (UniProt P82921)
inactive: [1] 0.146 | crizotinib -0.128 | [2] 0.07 | [3] 0.209 | [4] 0.16 | doramapimod 0.037 | ispinesib -0.239 | bafetinib 0.382 | nilotinib -0.347 | [6] 0.137 | dasatinib -0.284 | [7] -0.002 | [8] 0.036 | [9] 0.017 | tipifarnib -0.028 | mubritinib 0.277

MRPS35 (UniProt P82673)
inactive: [1] 0.004 | crizotinib -0.043 | [2] 0.016 | [3] 0.166 | gandotinib -0.039 | [4] 0.101 | doramapimod 0.005 | bafetinib 0.038 | [5] 0.115 | nilotinib -0.134 | [6] 0.088 | dasatinib -0.004 | [7] -0.071 | [8] -0.039 | [9] 0.017 | tipifarnib 0.024 | mubritinib 0.091
active: ispinesib -0.277

MTHFSD isoform 3 (UniProt Q2M296)
inactive: [1] -0.036 | crizotinib 0.087 | [3] 0.113 | duvelisib -0.132 | gandotinib -0.075 | tozasertib -0.053 | [4] -0.025 | doramapimod 0.167 | ispinesib -0.092 | bafetinib 0.129 | [5] -0.198 | dasatinib 0.187 | [8] -0.203 | [9] -0.154 | tipifarnib 0.086 | mubritinib -0.286

MSL1 (UniProt Q68DK7)
inactive: [1] 0.092 | crizotinib 0 | [2] 0.049 | gandotinib 0.31 | [4] -0.162 | doramapimod -0.054 | ispinesib -0.078 | bafetinib -0.056 | [5] 0.172 | nilotinib 0.004 | [6] 0.068 | dasatinib 0.014 | [7] -0.042 | [9] -0.019 | tipifarnib -0.065 | mubritinib 0.148

MRPS2 (UniProt Q9Y399)
inactive: [1] -0.043 | crizotinib 0.078 | [2] 0.032 | [3] 0.048 | gandotinib -0.117 | [4] 0.022 | doramapimod -0.049 | bafetinib 0.191 | [5] 0.175 | nilotinib -0.119 | [6] 0.019 | dasatinib -0.026 | [7] -0.062 | [8] 0.043 | [9] 0.035 | tipifarnib -0.074 | mubritinib 0.14
active: ispinesib -0.352

MT-ATP8 (UniProt P03928)
inactive: [1] -0.042 | crizotinib 0.036 | [2] 0.254 | gandotinib -0.06 | tozasertib -0.012 | doramapimod -0.1 | bafetinib -0.083 | [5] -0.23 | nilotinib 0.04 | [6] 0.024 | [7] -0.148 | mubritinib -0.026

MT-ND1 (UniProt P03886)
active: tipifarnib 0.633
inactive: [1] -0.011 | crizotinib -0.179 | [2] 0.287 | [3] -0.039 | [4] -0.081 | doramapimod 0.056 | ispinesib 0.178 | bafetinib -0.199 | nilotinib 0.102 | [6] -0.079 | dasatinib -0.149 | [7] -0.061 | [8] 0.066 | [9] -0.036 | mubritinib 0.114

MT-ATP6 (UniProt P00846)
inactive: [1] 0.041 | crizotinib 0.355 | [2] 0.225 | [3] 0.135 | gandotinib 0.143 | [4] -0.081 | doramapimod -0.038 | ispinesib 0.076 | bafetinib 0.162 | [5] 0.086 | nilotinib 0.006 | [6] 0.005 | dasatinib -0.101 | [7] -0.043 | [8] -0.024 | [9] 0.11 | tipifarnib 0.231 | mubritinib 0.028

MYD88 isoform 6 (UniProt Q99836)
inactive: [1] -0.027 | crizotinib -0.065 | [2] -0.033 | gandotinib 0.051 | doramapimod 0.183 | bafetinib 0.531 | [5] 0.032 | nilotinib 0.061 | [6] 0.119 | [7] -0.027 | tipifarnib 0.508 | mubritinib -0.34

Five successive records already listed, for reference:
MSL1 (UniProt Q68DK7)
inactive: [1] 0.092 | crizotinib 0 | [2] 0.049 | gandotinib 0.31 | [4] -0.162 | doramapimod -0.054 | ispinesib -0.078 | bafetinib -0.056 | [5] 0.172 | nilotinib 0.004 | [6] 0.068 | dasatinib 0.014 | [7] -0.042 | [9] -0.019 | tipifarnib -0.065 | mubritinib 0.148

MRPS2 (UniProt Q9Y399)
inactive: [1] -0.043 | crizotinib 0.078 | [2] 0.032 | [3] 0.048 | gandotinib -0.117 | [4] 0.022 | doramapimod -0.049 | bafetinib 0.191 | [5] 0.175 | nilotinib -0.119 | [6] 0.019 | dasatinib -0.026 | [7] -0.062 | [8] 0.043 | [9] 0.035 | tipifarnib -0.074 | mubritinib 0.14
active: ispinesib -0.352

MT-ATP8 (UniProt P03928)
inactive: [1] -0.042 | crizotinib 0.036 | [2] 0.254 | gandotinib -0.06 | tozasertib -0.012 | doramapimod -0.1 | bafetinib -0.083 | [5] -0.23 | nilotinib 0.04 | [6] 0.024 | [7] -0.148 | mubritinib -0.026

MT-ND1 (UniProt P03886)
active: tipifarnib 0.633
inactive: [1] -0.011 | crizotinib -0.179 | [2] 0.287 | [3] -0.039 | [4] -0.081 | doramapimod 0.056 | ispinesib 0.178 | bafetinib -0.199 | nilotinib 0.102 | [6] -0.079 | dasatinib -0.149 | [7] -0.061 | [8] 0.066 | [9] -0.036 | mubritinib 0.114

MT-ATP6 (UniProt P00846)
inactive: [1] 0.041 | crizotinib 0.355 | [2] 0.225 | [3] 0.135 | gandotinib 0.143 | [4] -0.081 | doramapimod -0.038 | ispinesib 0.076 | bafetinib 0.162 | [5] 0.086 | nilotinib 0.006 | [6] 0.005 | dasatinib -0.101 | [7] -0.043 | [8] -0.024 | [9] 0.11 | tipifarnib 0.231 | mubritinib 0.028

Next results follow.

MYO18B isoform 3 (UniProt Q8IUG5)
inactive: [1] 0.322 | [2] 0.088 | tozasertib 0.048 | ispinesib -0.379 | bafetinib -0.041 | nilotinib -0.089 | [6] -0.055 | [7] 0.03 | [9] 0.077
